Results are given in words; binding and its absence hold for the method and conditions named. Binding can be weak; no strength is given. Where a sequence is shown, tags or fusion partners need not be part of it.
target: T1, P. aeruginosa ATCC27853 CdnD (yeast two-hybrid fusion) (P. aeruginosa ATCC27853) (UniProt P0DTF7); test: two-hybrid
T1 sequence: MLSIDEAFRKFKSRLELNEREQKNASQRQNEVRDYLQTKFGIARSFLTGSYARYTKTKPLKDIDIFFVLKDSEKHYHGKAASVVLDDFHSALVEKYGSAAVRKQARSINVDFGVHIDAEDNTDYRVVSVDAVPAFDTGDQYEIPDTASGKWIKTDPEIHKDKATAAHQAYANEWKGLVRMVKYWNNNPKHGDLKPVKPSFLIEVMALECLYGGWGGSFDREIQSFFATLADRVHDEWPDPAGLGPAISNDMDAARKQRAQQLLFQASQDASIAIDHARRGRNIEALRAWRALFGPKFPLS

Substance | binding
P. aeruginosa ATCC27853 HORMA1 (yeast two-hybrid fusion) | binds
P. aeruginosa ATCC27853 HORMA2 (yeast two-hybrid fusion) | binds
Pa HORMA2-ΔC (lacking residues 134-166; yeast two-hybrid fusion) (P. aeruginosa ATCC27853) (domain or fragment) | no binding

— article doi:10.1101/694695 (bioRxiv, 2019)
